Test results taken from patent US20180000755A1 (UNIVERSITY OF TOKYO, published 2018).
These are yes or no findings as the source states them, for the method shown. Some binding calls cover weakened binding; strength is not graded here.

Target: T1, C-terminal membrane-proximal region of CCR2
T1 sequence (peptide): EKFRRYLSVFFRKHIT
Assay: HTRF experiment carried out in the past

B1: FROUNT fragment consisting of the region of the 549th to 656th amino acids (protein)
chain: GEKRFADAASLLLSLMTSRIAPRSFWMTLLTDALPLLEQKQVIFSAEQTYELMRCLEDLTSRRPVHGESDTEQLQDDDIETTKVEMLRLSLARNLARAIIREGSLEGS
- binding: binds

B2: FROUNT fragment consisting of the region of the 532nd to 650th amino acids (protein)
chain: SDRLTFLGKYREFHRMYGEKRFADAASLLLSLMTSRIAPRSFWMTLLTDALPLLEQKQVIFSAEQTYELMRCLEDLTSRRPVHGESDTEQLQDDDIETTKVEMLRLSLARNLARAIIRE
- binding: binds
